Reference: PubChem BioAssay AID256 (DTP/NCI, 2004)
The list is a part of this screen's results and no random one: it gathers tests that were run many times, whatever their T/C, doses with no T/C, and many T/C values between a quarter and a half above the control. Further doses and runs are listed elsewhere. T/C is the treated group as % of the vehicle group. Some doses have a count of surviving animals in place of a T/C: the source holds a T/C of zero for them, seemingly a mark for toxic or unscored doses. Some survivor counts are full or nearly so, which does not show that the dose was tolerated: the source hardly ever lists a survival T/C far under the control, and the zero likely stands for such cases as well. Survivors were counted at the toxicity check, usually on the fifth day, unless a day is given; later deaths do not show. Schedules are NCI's codes, read here as Q, the interval in days (D) or hours (H), X, the number of doses. Some schedules carry Z or #; the key to these is not given.

Test system: CD2F1 mice, L1210 leukemia ip, survival T/C
Test: NCI In Vivo Anticancer Drug Screen. Data for tumor model L1210 Leukemia (intraperitoneal) in CD2F1 (CDF1) mice
Details: higher T/C = longer survival
In short: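 Compound-dosed mice with transplantable tumor versus matched vehicle controls; endpoint ratio T/C reported.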

[1] = T/C endpoint: mean survival time, dose: 400.0 mg/kg/injection, schedule: Q01DX009 (ip), vehicle: saline
[2] = T/C endpoint: mean survival time, dose: 300.0 mg/kg/injection, schedule: Q01DX001 (ip), vehicle: saline
[3] = T/C endpoint: mean survival time, dose: 400.0 mg/kg/injection, schedule: Q04DX003 (ip), vehicle: saline with Tween-80

Structure (SMILES): O=C1C=CC(=O)c2c(Cl)ccc(O)c21
- survivor count (T/C endpoint: mean survival time, dose: 25.0 mg/kg/injection, schedule: Q04DX002 (ip), vehicle: other): 0 of 3
- survivor count (T/C endpoint: mean survival time, dose: 50.0 mg/kg/injection, schedule: Q04DX002 (ip), vehicle: other): 0 of 3
- survivor count (T/C endpoint: mean survival time, dose: 100.0 mg/kg/injection, schedule: Q04DX002 (ip), vehicle: other): 0 of 3
- survivor count (T/C endpoint: mean survival time, dose: 200.0 mg/kg/injection, schedule: Q04DX002 (ip), vehicle: other): 0 of 3
- survivor count (T/C endpoint: mean survival time, dose: 400.0 mg/kg/injection, schedule: Q04DX002 (ip), vehicle: other): 0 of 3

Structure (SMILES): c1ccc(-c2cc(-c3cc(-c4ccccc4)on3)no2)cc1
- survivor count (T/C endpoint: mean survival time, dose: 400.0 mg/kg/injection, schedule: Q01DX001 (ip), vehicle: saline with Tween-80): 0 of 6

Structure (SMILES): CC1C=CC(=O)O1 (centres undefined)
- survivor count (T/C endpoint: mean survival time, dose: 200.0 mg/kg/injection, schedule: Q04DX002 (ip), vehicle: saline with Tween-80): 1 of 3

Structure (SMILES): O=P(O)(O)OCC(O)CCl (centres undefined)
- survivor count [1]: 6 of 6

Structure (SMILES): C=C[CH2][Sn]([CH2]C=C)([CH2]CCC)[CH2]CCC
- survivor count (T/C endpoint: mean survival time, dose: 25.0 mg/kg/injection, schedule: Q04DX002 (ip), vehicle: saline with Tween-80): 0 of 3
- survivor count (T/C endpoint: mean survival time, dose: 50.0 mg/kg/injection, schedule: Q04DX002 (ip), vehicle: saline with Tween-80): 0 of 3
- survivor count (T/C endpoint: mean survival time, dose: 100.0 mg/kg/injection, schedule: Q04DX002 (ip), vehicle: saline with Tween-80): 0 of 3

Structure (SMILES): O=[N+]([O-])c1ccc(N(CCO)CCO)c2c1no[n+]2[O-]
- survivor count (T/C endpoint: median survival time, dose: 100.0 mg/kg/injection, schedule: Q01DX009 (ip), vehicle: saline with Tween-80): 3 of 6
- survivor count (T/C endpoint: median survival time, dose: 200.0 mg/kg/injection, schedule: Q01DX009 (ip), vehicle: saline with Tween-80): 0 of 6

Structure (SMILES): CC(C)CCC(C(=O)O)C(=O)O
- survivor count [2]: 1 of 6

Structure (SMILES): O=C(O)c1ccc(N2C(=O)C=CC2=O)cc1 (tested in a mixture with another compound)
- survivor count (T/C endpoint: mean survival time, dose: 100.0 mg/kg/injection, schedule: Q01DX009 (ip), vehicle: saline with Tween-80): 0 of 6
- survivor count (T/C endpoint: mean survival time, dose: 200.0 mg/kg/injection, schedule: Q01DX009 (ip), vehicle: saline with Tween-80): 0 of 6
- survivor count (T/C endpoint: mean survival time, dose: 400.0 mg/kg/injection, schedule: Q01DX009 (ip), vehicle: saline with Tween-80): 0 of 6

Structure (SMILES): NC(=O)CCl
- survivor count (T/C endpoint: mean survival time, dose: 200.0 mg/kg/injection, schedule: Q04DX003 (ip), vehicle: saline): 0 of 6
- survivor count (T/C endpoint: mean survival time, dose: 400.0 mg/kg/injection, schedule: Q04DX003 (ip), vehicle: saline): 0 of 6

Structure (SMILES): Nc1nc(-c2cccc([N+](=O)[O-])c2)c(N=Nc2ccccc2[N+](=O)[O-])s1
- survivor count (T/C endpoint: mean survival time, dose: 200.0 mg/kg/injection, schedule: Q01DX001 (ip), vehicle: saline with Tween-80): 6 of 6

Structure (SMILES): NNC1CC2CCC1C2 (centres undefined)
- survivor count (T/C endpoint: mean survival time, dose: 50.0 mg/kg/injection, schedule: Q01DX009 (ip), vehicle: saline): 1 of 6
- survivor count (T/C endpoint: mean survival time, dose: 100.0 mg/kg/injection, schedule: Q01DX009 (ip), vehicle: saline): 0 of 6
- survivor count (T/C endpoint: mean survival time, dose: 200.0 mg/kg/injection, schedule: Q01DX009 (ip), vehicle: saline): 0 of 6
- survivor count [1]: 0 of 6

Structure (SMILES): Nc1cnc(/C=C/c2ccccc2)nc1
- survivor count (T/C endpoint: mean survival time, dose: 300.0 mg/kg/injection, schedule: Q01DX001 (ip), vehicle: other): 0 of 6

Structure (SMILES): CC1C=CC(C(=O)Nc2ccc(Cl)c(Cl)c2)N1C (centres undefined)
- survivor count [3]: 5 of 6

Structure (SMILES): Cc1ccc(S(=O)(=O)Nc2ccc(Cl)c(Cl)c2)cc1
- survivor count (T/C endpoint: mean survival time, dose: 400.0 mg/kg/injection, schedule: Q01DX009 (ip), vehicle: Klucel (hydroxypropylcellulose) (HPC)): 6 of 6

Structure (SMILES): N=c1ccccn1CCO
- survivor count [2]: 0 of 6

Structure (SMILES): Nc1ccc(N2CCNCC2)cc1
- survivor count [3]: 5 of 6

Structure (SMILES): Nc1nc(N)nc(Nc2ccc(Sc3ccc(Nc4nc(N)nc(N)n4)cc3)cc2)n1
- survivor count (T/C endpoint: mean survival time, dose: 266.0 mg/kg/injection, schedule: Q01DX Z (ip), vehicle: saline): 3 of 6
- survivor count (T/C endpoint: mean survival time, dose: 400.0 mg/kg/injection, schedule: Q01DX Z (ip), vehicle: saline): 1 of 6
- survivor count (T/C endpoint: mean survival time, dose: 600.0 mg/kg/injection, schedule: Q01DX Z (ip), vehicle: saline): 2 of 6

Structure (SMILES): CN(C)C=Nc1ccc(C#N)cc1
- survivor count (T/C endpoint: mean survival time, dose: 200.0 mg/kg/injection, schedule: Q01DX001 (ip), vehicle: saline): 0 of 4
- survivor count (T/C endpoint: mean survival time, dose: 400.0 mg/kg/injection, schedule: Q01DX001 (ip), vehicle: saline): 0 of 4
